Test results from patent US20260193326A1.
Where a chain is given by its changes, count along the chain named. These are yes or no findings as the source states them, for the method shown. Some binding calls cover weakened binding; strength is not graded here.

Sequences of proteins named here, by UniProt entry; tags and fusion partners are left off.
UniProt P03135: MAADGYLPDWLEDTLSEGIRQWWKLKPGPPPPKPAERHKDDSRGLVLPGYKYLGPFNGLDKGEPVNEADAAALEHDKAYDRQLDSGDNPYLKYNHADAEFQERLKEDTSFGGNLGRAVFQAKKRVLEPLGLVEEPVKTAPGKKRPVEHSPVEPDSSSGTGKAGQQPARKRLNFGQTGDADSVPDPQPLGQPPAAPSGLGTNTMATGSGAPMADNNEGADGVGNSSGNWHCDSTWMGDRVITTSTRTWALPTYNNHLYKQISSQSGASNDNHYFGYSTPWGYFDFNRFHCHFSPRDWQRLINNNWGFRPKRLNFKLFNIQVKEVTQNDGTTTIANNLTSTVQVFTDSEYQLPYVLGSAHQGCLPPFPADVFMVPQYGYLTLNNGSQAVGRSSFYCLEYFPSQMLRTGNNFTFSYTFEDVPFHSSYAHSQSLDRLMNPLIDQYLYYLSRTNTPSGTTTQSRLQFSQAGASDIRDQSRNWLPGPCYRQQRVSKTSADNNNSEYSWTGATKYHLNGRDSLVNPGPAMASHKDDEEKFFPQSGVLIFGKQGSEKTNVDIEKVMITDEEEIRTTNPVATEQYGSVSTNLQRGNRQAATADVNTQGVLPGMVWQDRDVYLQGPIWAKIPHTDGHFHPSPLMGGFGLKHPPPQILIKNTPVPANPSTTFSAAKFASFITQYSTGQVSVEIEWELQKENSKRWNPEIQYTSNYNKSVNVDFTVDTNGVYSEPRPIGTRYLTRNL

B1: A4-H1 (VHH)
VHH: VQLVESGGGLVQPGGSLRLSCAASGRSFSINTMGWFRQAPGKGLEAVAIVTRGGSTYYADSVKGRFTISRDNSKNTLYLQMNSLRAEDTAVYYCHIDEVRQSSWTTSNIWGQGTLVTVSS
B2: A4-H4 (VHH)
VHH: B1 VHH with R26S, S27I, T32L, A46L, V50I, R52P, S55N, L77V, I96V, I109L
B3: A4-B3 (VHH)
chain: VQLVESGGGLVQPGGSLRLSCAASGRSFSINTMGWFRQAPGKGLEAVAIVTRGGSTYYADSVKGRFTISRDNSKNTLYLQMNSLRAEDTAVYYCHIDEVRQSSWTTSNIWGQGTLVTVSSGGGGSGGGGSGGGGSVQLVESGGGLVQPGGSLRLSCAASGRSFSINTMGWFRQAPGKGLEAVAIVTRGGSTYYADSVKGRFTISRDNSKNTLYLQMNSLRAEDTAVYYCHIDEVRQSSWTTSNIWGQGTLVTVSS
B4: A4-B4 (bispecific antibody)
chain: B3 chain with R161S, S162I, T167L, A181L, V185I, R187P, S190N, L212V, I231V, I244L

Legend:
[1] = molecular target: AAV2 (adeno-associated virus serotype 2 (AAV2)) (UniProt P03135); test: SPR, recombinant AAV particles amine-coupled to CM5 chip
[2] = molecular target: AAV2 (adeno-associated virus serotype 2 (AAV2)) (UniProt P03135); test: SPR, AAV amine-coupled to CM5 chip

Binder | binding [1] | binding [2]
B1 | binds | –
B2 | binds | –
B3 | – | binds
B4 | – | binds
